# Test results: the supplement of paper PMC8728848
# This is one part of the list.
# B1: GroEL (Clostridium difficile), Q18CT5 (protein)
# chain: MAKEIKFSEETRRALEAGVNKLADTVKVTLGPKGRNVILDKKFGSPLITNDGVTIAKEIELEDRFENMGAQLVKEVATKTNDVAGDGTTTATVLAQAIIREGLKNVTAGANPILLRKGIQKAVTVAVEELKNQSRIVETQEAISQVASISAGDEEVGKLIAEAMEIVGKDGVITVEESQTMNTELDAVEGMQFDRGFVSAYMVTDVDKMEAVLNDPYILITDKKISNIQELLPVLEQIVQQGKKLLIIAEDVEGEALSTLVVNKLRGTFDVVAVKAPGFGDRRKEMLQDIAILTGAQVISEELGYDLKEADLSMLGRASSVKVTKESTTIVDGSGDKKAIEDRVTQIKHQVEQTTSDFDREKLMERLAKLAGGVAVVKVGAATEVELKERKLRIEDALNATRAAVEEGIVAGGGTAFVSVIPAIGTLIESLEGEVKLGAQIVKKALEEPLRQIAINAGLEGAVIVQNVVNSEAETGFDALNEKYVNMIEAGIVDPTKVSRSALQNAASIASTFLTTEAAVADLPEKEDAGMPGMGGGMPGMM
# What was measured:
# Assay in all cases: glycan array binding signal (z-score within array); higher = stronger binding
# Conditions in all cases: glycan notation: IUPAC condensed, linker removed
# [1] = biological target: Neu5Ac(a2-3)Gal(b1-3)[Fuc(a1-4)]GlcNAc(b1-3)Gal(b1-3)[Fuc(a1-4)]GlcNAc
# Method in brief: (§1)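 The binding signal is a Z-score computed within each array and averaged over linkers. Arrays of the same protein sequence at different concentrations or buffers were also averaged together. Data originate from 3228 arrays in the Consortium for Functional Glycomics database, kept only where the protein sequence was available.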
# [2] = biological target: Neu5Ac(a2-3)Gal(b1-3)[Fuc(a1-4)]GlcNAc(b1-3)Gal(b1-4)[Fuc(a1-3)]GlcNAc
# Method in brief: as §1
# [3] = biological target: Neu5Ac(a2-3)Gal(b1-3)[GlcNAc(b1-6)]GalNAc
# Method in brief: as §1
# [4] = biological target: Neu5Ac(a2-3)Gal(b1-3)[Neu5Ac(a2-6)]GalNAc
# Method in brief: as §1
# [5] = biological target: Neu5Ac(a2-3)Gal(b1-3)[Neu5Ac(a2-6)]GlcNAc(b1-3)[Fuc(a1-3)[Gal(b1-4)]GlcNAc(b1-6)]Gal(b1-4)Glc
# Method in brief: as §1
# [6] = biological target: Neu5Ac(a2-3)Gal(b1-3)]Neu5Ac(a2-3)Gal(b1-4)]GlcNAc
# Method in brief: as §1
# Neu5Ac(a2-3)Gal(b1-4)Glc = biological target: Neu5Ac(a2-3)Gal(b1-4)Glc
# Method in brief: as §1
# [7] = biological target: Neu5Ac(a2-3)Gal(b1-4)GlcNAc
# Method in brief: as §1
# [8] = biological target: Neu5Ac(a2-3)Gal(b1-4)GlcNAc(b1-2)Man
# Method in brief: as §1
# [9] = biological target: Neu5Ac(a2-3)Gal(b1-4)GlcNAc(b1-2)Man(a1-3)[GlcNAc(b1-4)][Neu5Ac(a2-3)Gal(b1-4)GlcNAc(b1-2)Man(a1-6)]Man(b1-4)GlcNAc(b1-4)GlcNAc
# Method in brief: as §1
# [10] = biological target: Neu5Ac(a2-3)Gal(b1-4)GlcNAc(b1-2)Man(a1-3)[Neu5Ac(a2-3)Gal(b1-4)GlcNAc(b1-2)Man(a1-6)]Man(b1-4)GlcNAc(b1-4)GlcNAc
# Method in brief: as §1
# [11] = biological target: Neu5Ac(a2-3)Gal(b1-4)GlcNAc(b1-2)Man(a1-3)[Neu5Ac(a2-3)Gal(b1-4)GlcNAc(b1-2)Man(a1-6)]Man(b1-4)GlcNAc(b1-4)[Fuc(a1-6)]GlcNAc
# Method in brief: as §1
# [12] = biological target: Neu5Ac(a2-3)Gal(b1-4)GlcNAc(b1-2)Man(a1-3)[Neu5Ac(a2-6)Gal(b1-4)GlcNAc(b1-2)Man(a1-6)]Man(b1-4)GlcNAc(b1-4)GlcNAc
# Method in brief: as §1
# [13] = biological target: Neu5Ac(a2-3)Gal(b1-4)GlcNAc(b1-2)[Neu5Ac(a2-3)Gal(b1-4)GlcNAc(b1-4)]Man(a1-3)[GlcNAc(b1-4)][Neu5Ac(a2-3)Gal(b1-4)GlcNAc(b1-2)[Neu5Ac(a2-3)Gal(b1-4)GlcNAc(b1-6)]Man(a1-6)]Man(b1-4)GlcNAc(b1-4)GlcNAc
# Method in brief: as §1
# [14] = biological target: Neu5Ac(a2-3)Gal(b1-4)GlcNAc(b1-2)[Neu5Ac(a2-3)Gal(b1-4)GlcNAc(b1-4)]Man(a1-3)[GlcNAc(b1-4)][Neu5Ac(a2-3)Gal(b1-4)GlcNAc(b1-4)Man(a1-6)]Man(b1-4)GlcNAc(b1-4)GlcNAc
# Method in brief: as §1
# [15] = biological target: Neu5Ac(a2-3)Gal(b1-4)GlcNAc(b1-2)[Neu5Ac(a2-3)Gal(b1-4)GlcNAc(b1-6)]Man(a1-6)[Neu5Ac(a2-3)Gal(b1-4)GlcNAc(b1-2)Man(a1-3)]Man(b1-4)GlcNAc(b1-4)GlcNAc
# Method in brief: as §1
# [16] = biological target: Neu5Ac(a2-3)Gal(b1-4)GlcNAc(b1-2)[Neu5Ac(a2-3)Gal(b1-4)GlcNAc(b1-6)]Man(a1-6)[Neu5Ac(a2-3)Gal(b1-4)GlcNAc(b1-2)Man(a1-3)][GlcNAc(b1-4)]Man(b1-4)GlcNAc(b1-4)GlcNAc
# Method in brief: as §1
# [17] = biological target: Neu5Ac(a2-3)Gal(b1-4)GlcNAc(b1-3)Gal
# Method in brief: as §1
# [18] = biological target: Neu5Ac(a2-3)Gal(b1-4)GlcNAc(b1-3)Gal(b1-3)GlcNAc
# Method in brief: as §1
# [19] = biological target: Neu5Ac(a2-3)Gal(b1-4)GlcNAc(b1-3)Gal(b1-4)GlcNAc
# Method in brief: as §1
# [20] = biological target: Neu5Ac(a2-3)Gal(b1-4)GlcNAc(b1-3)Gal(b1-4)GlcNAc(b1-2)Man(a1-3)[Neu5Ac(a2-3)Gal(b1-4)GlcNAc(b1-3)Gal(b1-4)GlcNAc(b1-2)Man(a1-6)]Man(b1-4)GlcNAc(b1-4)GlcNAc
# Method in brief: as §1
# [21] = biological target: Neu5Ac(a2-3)Gal(b1-4)GlcNAc(b1-3)Gal(b1-4)GlcNAc(b1-3)Gal(b1-4)GlcNAc
# Method in brief: as §1
# [22] = biological target: Neu5Ac(a2-3)Gal(b1-4)GlcNAc(b1-3)Gal(b1-4)GlcNAc(b1-3)Gal(b1-4)GlcNAc(b1-2)Man(a1-3)[Neu5Ac(a2-3)Gal(b1-4)GlcNAc(b1-3)Gal(b1-4)GlcNAc(b1-3)Gal(b1-4)GlcNAc(b1-2)Man(a1-6)]GalNAc
# Method in brief: as §1
# [23] = biological target: Neu5Ac(a2-3)Gal(b1-4)GlcNAc(b1-3)Gal(b1-4)GlcNAc(b1-3)GalNAc
# Method in brief: as §1
# [24] = biological target: Neu5Ac(a2-3)Gal(b1-4)GlcNAc(b1-3)Gal(b1-4)GlcNAc(b1-3)[Neu5Ac(a2-3)Gal(b1-4)GlcNAc(b1-3)Gal(b1-4)GlcNAc(b1-6)]GalNAc
# Method in brief: as §1
# [25] = biological target: Neu5Ac(a2-3)Gal(b1-4)GlcNAc(b1-3)Gal(b1-4)GlcNAc(b1-6)[Gal(b1-3)]GalNAc
# Method in brief: as §1
# [26] = biological target: Neu5Ac(a2-3)Gal(b1-4)GlcNAc(b1-3)Gal(b1-4)[Fuc(a1-3)]GlcNAc
# Method in brief: as §1
# [27] = biological target: Neu5Ac(a2-3)Gal(b1-4)GlcNAc(b1-3)GalNAc
# Method in brief: as §1
# [28] = biological target: Neu5Ac(a2-3)Gal(b1-4)GlcNAc(b1-3)[Neu5Ac(a2-3)Gal(b1-4)GlcNAc(b1-6)]GalNAc
# Method in brief: as §1
# [29] = biological target: Neu5Ac(a2-3)Gal(b1-4)GlcNAc(b1-6)GalNAc
# Method in brief: as §1
binder,measurement,setting,value
B1,glycan array binding signal (z-score),[1],-0.304
same,glycan array binding signal (z-score),[2],-0.174
same,glycan array binding signal (z-score),[3],-0.894
same,glycan array binding signal (z-score),[4],0.68
same,glycan array binding signal (z-score),[5],1.18
same,glycan array binding signal (z-score),[6],0.065
same,glycan array binding signal (z-score),Neu5Ac(a2-3)Gal(b1-4)Glc,0.753
same,glycan array binding signal (z-score),[7],0.671
same,glycan array binding signal (z-score),[8],0.243
same,glycan array binding signal (z-score),[9],0.59
same,glycan array binding signal (z-score),[10],0.413
same,glycan array binding signal (z-score),[11],-0.183
same,glycan array binding signal (z-score),[12],0.024
same,glycan array binding signal (z-score),[13],-0.102
same,glycan array binding signal (z-score),[14],-1.27
same,glycan array binding signal (z-score),[15],-0.583
same,glycan array binding signal (z-score),[16],-1.01
same,glycan array binding signal (z-score),[17],-0.912
same,glycan array binding signal (z-score),[18],-0.651
same,glycan array binding signal (z-score),[19],-0.366
same,glycan array binding signal (z-score),[20],1.97
same,glycan array binding signal (z-score),[21],0.35
same,glycan array binding signal (z-score),[22],-0.249
same,glycan array binding signal (z-score),[23],-0.287
same,glycan array binding signal (z-score),[24],-0.095
same,glycan array binding signal (z-score),[25],1.14
same,glycan array binding signal (z-score),[26],-1.03
same,glycan array binding signal (z-score),[27],0.079
same,glycan array binding signal (z-score),[28],0.087
same,glycan array binding signal (z-score),[29],-0.601
